Source: paper PMC9426659
No constants are given. Whether binding was seen depends on the method and setting. Binding seen in cells or lysates may run through a third protein. Some results given as binding are weak or reduced against the parent protein; the word gives no strength. Sequences can lack the tags named with a protein.

By UniProt entry, the sequences of proteins in these tests, tags left out.
UniProt P03431: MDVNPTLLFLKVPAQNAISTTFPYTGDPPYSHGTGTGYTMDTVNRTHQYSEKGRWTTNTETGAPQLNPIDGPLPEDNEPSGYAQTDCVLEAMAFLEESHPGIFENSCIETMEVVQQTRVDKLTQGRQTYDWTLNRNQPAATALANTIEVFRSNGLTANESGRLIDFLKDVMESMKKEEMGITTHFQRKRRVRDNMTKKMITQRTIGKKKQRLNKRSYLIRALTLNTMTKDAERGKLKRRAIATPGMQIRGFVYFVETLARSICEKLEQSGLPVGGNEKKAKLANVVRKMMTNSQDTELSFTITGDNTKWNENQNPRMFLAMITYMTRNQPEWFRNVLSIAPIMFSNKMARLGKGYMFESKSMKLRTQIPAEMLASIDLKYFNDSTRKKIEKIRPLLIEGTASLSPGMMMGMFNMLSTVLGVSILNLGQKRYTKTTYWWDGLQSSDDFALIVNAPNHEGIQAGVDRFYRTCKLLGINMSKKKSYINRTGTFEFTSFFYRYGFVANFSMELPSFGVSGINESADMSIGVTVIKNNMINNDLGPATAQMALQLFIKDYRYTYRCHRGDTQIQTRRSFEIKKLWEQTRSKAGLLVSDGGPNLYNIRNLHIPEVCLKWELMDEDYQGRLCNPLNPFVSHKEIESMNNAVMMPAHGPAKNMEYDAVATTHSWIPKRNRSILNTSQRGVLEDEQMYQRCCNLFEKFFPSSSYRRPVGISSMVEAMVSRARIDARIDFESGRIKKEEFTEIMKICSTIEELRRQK
UniProt P03466: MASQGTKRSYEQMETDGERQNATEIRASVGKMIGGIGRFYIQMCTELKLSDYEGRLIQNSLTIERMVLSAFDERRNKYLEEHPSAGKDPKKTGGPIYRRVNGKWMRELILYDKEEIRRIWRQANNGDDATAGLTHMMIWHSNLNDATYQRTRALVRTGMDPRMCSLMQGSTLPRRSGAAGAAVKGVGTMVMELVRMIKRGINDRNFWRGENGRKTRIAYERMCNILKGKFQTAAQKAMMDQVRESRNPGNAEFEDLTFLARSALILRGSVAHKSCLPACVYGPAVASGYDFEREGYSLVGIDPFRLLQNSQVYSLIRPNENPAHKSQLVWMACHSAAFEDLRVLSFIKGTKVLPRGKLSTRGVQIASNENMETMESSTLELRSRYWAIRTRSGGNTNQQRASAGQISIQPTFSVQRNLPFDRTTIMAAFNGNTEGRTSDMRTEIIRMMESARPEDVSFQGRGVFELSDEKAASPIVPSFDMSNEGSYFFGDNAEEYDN

Experiments:
[1] = molecular target: Flag-PB1 (polymerase basic protein 1 of PR8 H1N1 virus) (influenza A virus A/Puerto Rico/8/1934 (H1N1)) (UniProt P03431); test: co-IP
[2] = molecular target: Flag-NP (nucleoprotein of PR8 H1N1 virus) (influenza A virus A/Puerto Rico/8/1934 (H1N1)) (UniProt P03466); test: co-IP

Row | Binder | binding [1] | binding [2]
1 | HA-RanBP5 (Ran-binding protein 5) (protein, UniProt O00410 1-1097) MAAAAAEQQQFYLLLGNLLSPDNVVRKQAEETYENIPGQSKITFLLQAIRNTTAAEEARQMAAVLLRRLLSSAFDEVYPALPSDVQTAIKSELLMIIQMETQSSMRKKVCDIAAELARNLIDEDGNNQWPEGLKFLFDSVSSQNVGLREAALHIFWNFPGIFGNQQQHYLDVIKRMLVQCMQDQEHPSIRTLSARATAAFILANEHNVALFKHFADLLPGFLQAVNDSCYQNDDSVLKSLVEIADTVPKYLRPHLEATLQLSLKLCGDTSLNNMQRQLALEVIVTLSETAAAMLRKHTNIVAQTIPQMLAMMVDLEEDEDWANADELEDDDFDSNAVAGESALDRMACGLGGKLVLPMIKEHIMQMLQNPDWKYRHAGLMALSAIGEGCHQQMEGILNEIVNFVLLFLQDPHPRVRYAACNAVGQMATDFAPGFQKKFHEKVIAALLQTMEDQGNQRVQAHAAAALINFTEDCPKSLLIPYLDNLVKHLHSIMVLKLQELIQKGTKLVLEQVVTSIASVADTAEEKFVPYYDLFMPSLKHIVENAVQKELRLLRGKTIECISLIGLAVGKEKFMQDASDVMQLLLKTQTDFNDMEDDDPQISYMISAWARMCKILGKEFQQYLPVVMGPLMKTASIKPEVALLDTQDMENMSDDDGWEFVNLGDQQSFGIKTAGLEEKSTACQMLVCYAKELKEGFVEYTEQVVKLMVPLLKFYFHDGVRVAAAESMPLLLECARVRGPEYLTQMWHFMCDALIKAIGTEPDSDVLSEIMHSFAKCIEVMGDGCLNNEHFEELGGILKAKLEEHFKNQELRQVKRQDEDYDEQVEESLQDEDDNDVYILTKVSDILHSIFSSYKEKVLPWFEQLLPLIVNLICPHRPWPDRQWGLCIFDDVIEHCSPASFKYAEYFLRPMLQYVCDNSPEVRQAAAYGLGVMAQYGGDNYRPFCTEALPLLVRVIQSADSKTKENVNATENCISAVGKIMKFKPDCVNVEEVLPHWLSWLPLHEDKEEAVQTFNYLCDLIESNHPIVLGPNNTNLPKIFSIIAEGEMHEAIKHEDPCAKRLANVVRQVQTSGGLWTECIAQLSPEQQAAIQELLNSA | binds | –
2 | HA-NUP85 (nucleoporin 85) (protein, UniProt Q9BW27 1-656) MEELDGEPTVTLIPGVNSKKNQMYFDWGPGEMLVCETSFNKKEKSEMVPSCPFIYIIRKDVDVYSQILRKLFNESHGIFLGLQRIDEELTGKSRKSQLVRVSKNYRSVIRACMEEMHQVAIAAKDPANGRQFSSQVSILSAMELIWNLCEILFIEVAPAGPLLLHLLDWVRLHVCEVDSLSADVLGSENPSKHDSFWNLVTILVLQGRLDEARQMLSKEADASPASAGICRIMGDLMRTMPILSPGNTQTLTELELKWQHWHEECERYLQDSTFATSPHLESLLKIMLGDEAALLEQKELLSNWYHFLVTRLLYSNPTVKPIDLHYYAQSSLDLFLGGESSPEPLDNILLAAFEFDIHQVIKECSIALSNWWFVAHLTDLLDHCKLLQSHNLYFGSNMREFLLLEYASGLFAHPSLWQLGVDYFDYCPELGRVSLELHIERIPLNTEQKALKVLRICEQRQMTEQVRSICKILAMKAVRNNRLGSALSWSIRAKDAAFATLVSDRFLRDYCERGCFSDLDLIDNLGPAMMLSDRLTFLGKYREFHRMYGEKRFADAASLLLSLMTSRIAPRSFWMTLLTDALPLLEQKQVIFSAEQTYELMRCLEDLTSRRPVHGESDTEQLQDDDIETTKVEMLRLSLARNLARAIIREGSLEGS | – | no binding
